The results in this text go back to PMC8509203, “Members of the GADD45 Protein Family Show Distinct Propensities to form Toxic Amyloid-Like Aggregates in Physiological Conditions” (International Journal of Molecular Sciences, 2021).

These are yes or no findings as the source states them, for the method shown.

In assay [1] the target is T1, GADD45β (growth arrest and DNA damage-inducible 45 beta) (human), O75293.
T1 chain: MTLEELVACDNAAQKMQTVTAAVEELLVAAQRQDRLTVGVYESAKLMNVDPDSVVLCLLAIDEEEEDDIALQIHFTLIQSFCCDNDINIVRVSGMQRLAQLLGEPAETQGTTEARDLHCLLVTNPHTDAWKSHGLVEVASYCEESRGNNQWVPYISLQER
The experiment in a line: SEC-MALS; SEC-LS, Superdex S200 10/30 with miniDAWN TREOS; 0.5-1.0 mg loaded; 20 mM Tris-HCl pH 7.5, 100 mM NaCl, 5 mM DTT, 5% glycerol (the results and the legend name only 5 mM DTT in 20 mM Tris-HCl pH 7.5); oligomeric state of the native protein; both purified. To be noted: remark: other sources report otherwise.

Assay [2] deals with T2, GADD45α (growth arrest and DNA damage-inducible 45 alpha) (human), P24522.
T2 chain: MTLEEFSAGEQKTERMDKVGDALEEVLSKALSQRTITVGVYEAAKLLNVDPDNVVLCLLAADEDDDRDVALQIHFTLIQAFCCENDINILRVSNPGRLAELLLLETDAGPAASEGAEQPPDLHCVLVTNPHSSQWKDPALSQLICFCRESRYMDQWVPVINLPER
Described as above. Particulars: remark: other sources report otherwise.

B1: GADD45β (growth arrest and DNA damage-inducible 45 beta), O75293 1-160 (protein)
chain: T1 chain
modifications: here or on the partner: biotin (EZ-Link Sulfo-NHS-LC-Biotinylation Kit), in the BLI experiment only; biotin (EZ-Link Sulfo-NHS-LC-Biotinylation Kit), in the BLI experiment only
As for B1, in assay [1], the binding entry was “no binding (tested: 0.5–1.0 mg loaded on the column)”.

B2: GADD45α (growth arrest and DNA damage-inducible 45 alpha), P24522 1-165 (protein)
chain: T2 chain
modifications: here or on the partner: biotin (EZ-Link Sulfo-NHS-LC-Biotinylation Kit), in the BLI experiment only; biotin (EZ-Link Sulfo-NHS-LC-Biotinylation Kit), in the BLI experiment only
As to B2, in assay [2], the binding result is on record as “no binding (tested: 0.5–1.0 mg loaded on the column)”.
